Values from PubChem BioAssay AID1259307 (Sanger Institute, 2017)
Purpose: 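siRNA kinome screen seeking kinases whose loss harms SW620 cells alone or with drugs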 (primary screen). System: SW620 colorectal cancer cells. Knock-down reagent: siRNA pool against human genes. Treatment: anchor drugs BYL719 at 1 µM, cetuximab at 5 µg/ml or trametinib at 10 nM, each beside a DMSO vehicle arm. Measurement: 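Cell viability in each well relative to non-targeting controls, averaged over replicates and turned into a robust z-score; synergy with BYL719 (1 µM), cetuximab (5 µg/ml), trametinib (10 nM) versus DMSO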. Direction: viability robust z-score, no drug and viability vs control, no drug: higher = more viable cells. Hit rule: 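Essential when the viability robust z-score without drug is under -3; synergy scores are ignored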. Meaning of the calls: active = essential (lethal alone); inactive = no change alone.
In all, the deposit lists 794 reagents; shown is an unselected part. 15 of them (1.9%) were called active. 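Calls reflect lethality without any drug; synergy scores did not enter the calls.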 Unmarked entries are inactive. Viability is capped at 1. Not all columns of the deposit are shown. The record does not give: the amount of reagent, the time to read-out.

{"target": "STK31 (serine/threonine kinase 31)", "viability robust z-score, no drug": 0.736, "viability vs control, no drug": 1}
{"target": "CSNK1D (casein kinase 1 delta)", "viability robust z-score, no drug": 0.736, "viability vs control, no drug": 1}
{"target": "DGKK (diacylglycerol kinase kappa)", "viability robust z-score, no drug": 0.565, "viability vs control, no drug": 0.984}
{"target": "EPHA5 (EPH receptor A5)", "viability robust z-score, no drug": 0.736, "viability vs control, no drug": 1}
{"target": "MTOR (mechanistic target of rapamycin kinase)", "viability robust z-score, no drug": -0.855, "viability vs control, no drug": 0.853}
{"target": "TK2 (thymidine kinase 2)", "viability robust z-score, no drug": 0.175, "viability vs control, no drug": 0.948}
{"target": "TP53RK (TP53 regulating kinase)", "viability robust z-score, no drug": 0.324, "viability vs control, no drug": 0.962}
{"target": "CDC42BPG (CDC42 binding protein kinase gamma)", "viability robust z-score, no drug": 0.736, "viability vs control, no drug": 1}
{"target": "BRD3 (bromodomain containing 3)", "viability robust z-score, no drug": -0.899, "viability vs control, no drug": 0.849}
{"target": "ULK2 (unc-51 like autophagy activating kinase 2)", "viability robust z-score, no drug": 0.354, "viability vs control, no drug": 0.965}
{"target": "FRK (fyn related Src family tyrosine kinase)", "viability robust z-score, no drug": -0.219, "viability vs control, no drug": 0.912}
{"target": "NTRK3 (neurotrophic receptor tyrosine kinase 3)", "viability robust z-score, no drug": 0.736, "viability vs control, no drug": 1}
{"target": "ELP1 (elongator acetyltransferase complex subunit 1)", "viability robust z-score, no drug": -0.0113, "viability vs control, no drug": 0.931}
{"target": "CLSPN (claspin)", "viability robust z-score, no drug": 0.736, "viability vs control, no drug": 1}
{"target": "DGKQ (diacylglycerol kinase theta)", "viability robust z-score, no drug": -0.523, "viability vs control, no drug": 0.884}
{"target": "TRIB3 (tribbles pseudokinase 3)", "viability robust z-score, no drug": -0.331, "viability vs control, no drug": 0.902}
{"target": "RSKR (ribosomal protein S6 kinase related)", "viability robust z-score, no drug": 0.68, "viability vs control, no drug": 0.995}
{"target": "STYK1 (STY kinase 1)", "viability robust z-score, no drug": 0.736, "viability vs control, no drug": 1}
{"target": "CDK19 (cyclin dependent kinase 19)", "viability robust z-score, no drug": 0.736, "viability vs control, no drug": 1}
{"target": "ANKK1 (ankyrin repeat and kinase domain containing 1)", "viability robust z-score, no drug": 0.736, "viability vs control, no drug": 1}
{"target": "FXN (frataxin)", "viability robust z-score, no drug": 0.736, "viability vs control, no drug": 1}
{"target": "ASPM (assembly factor for spindle microtubules)", "viability robust z-score, no drug": -0.222, "viability vs control, no drug": 0.912}
{"target": "AKT1 (AKT serine/threonine kinase 1)", "viability robust z-score, no drug": 0.382, "viability vs control, no drug": 0.967}
{"target": "PANK2 (pantothenate kinase 2)", "viability robust z-score, no drug": 0.188, "viability vs control, no drug": 0.949}
{"target": "CAMK1 (calcium/calmodulin dependent protein kinase I)", "viability robust z-score, no drug": 0.736, "viability vs control, no drug": 1}
{"target": "GTF2H1 (general transcription factor IIH subunit 1)", "viability robust z-score, no drug": -0.76, "viability vs control, no drug": 0.862}
{"target": "ITK (IL2 inducible T cell kinase)", "viability robust z-score, no drug": 0.736, "viability vs control, no drug": 1}
{"target": "PRKCSH (PRKCSH beta subunit of glucosidase II)", "viability robust z-score, no drug": 0.736, "viability vs control, no drug": 1}

Sorted by “viability vs control, no drug” (high to low): some entries from above.
{"target": "CDC42BPG (CDC42 binding protein kinase gamma)", "viability robust z-score, no drug": 0.736, "viability vs control, no drug": 1}
{"target": "NTRK3 (neurotrophic receptor tyrosine kinase 3)", "viability robust z-score, no drug": 0.736, "viability vs control, no drug": 1}
{"target": "ULK2 (unc-51 like autophagy activating kinase 2)", "viability robust z-score, no drug": 0.354, "viability vs control, no drug": 0.965}
{"target": "FRK (fyn related Src family tyrosine kinase)", "viability robust z-score, no drug": -0.219, "viability vs control, no drug": 0.912}
{"target": "BRD3 (bromodomain containing 3)", "viability robust z-score, no drug": -0.899, "viability vs control, no drug": 0.849}
